Reference: US12174172B2, “Method for evaluating the efficacy of a composition in reducing the effects of cancer therapeutics on skin” (Johnson & Johnson Consumer Inc., priority 2019, dated 2024)
“And” between values parts separate entries of the source, which are not always exact repeats. Equal values may be shown once. For part of these data: The name of at least one read-out is uncertain. For part of these data: At least one compound was matched to its structure with a doubt left.

Experiments:
[1] = tested on: Human epidermal keratinocytes cells (HPEKs), 3D micro-epidermis; test: 3D micro-epidermis model (EpiScreen): epidermis size, toxicity, dose response, classification; type: cell-based; settings: concentration (afatinib 3-30 nM; pan-kinase inhibitors up to 100 nM);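 further: keratinocytes on micropatterned discs in high-calcium medium, drug exposure for three days, then fixation and confocal high-content imaging of actin, nuclei and a marker, vehicle DMSO-matched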
filaggrin (FLG) = test: 3D micro-epidermis model (EpiScreen): filaggrin immunostaining; type: cell-based, human;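 further: human primary epidermal keratinocytes differentiated in high calcium into 3D micro-epidermises, compound-treated for three days, imaged by confocal high-content microscopy, filaggrin staining intensity quantified within actin-segmented structures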

Row | Structure (SMILES) | micro-epidermis size / epidermal volume [1] | FLG 1 μM (filaggrin (FLG); 1 μM, supplementary data, two runs, Tox = toxic) | FLG expression (filaggrin (FLG); Table 3, 30 nM (EGFRi) or 100 nM (VEGFRi), vs untreated control, superscript = significance footnote)
1 | CCN(CC)CCNC(=O)c1c(C)[nH]c(/C=C2\C(=O)Nc3ccc(F)cc32)c1C [Sunitinib] | no impact | – | –
2 | CNC(=O)c1cc(Oc2ccc(NC(=O)Nc3ccc(Cl)c(C(F)(F)F)c3)cc2)ccn1 [Sorafenib] | – | −24% and −22% | −28%^1
